Experimental findings from article PMC10864483 (Frontiers in Microbiology, 2024) are described below.

The data set is described as follows: general procedure: Fmoc solid-phase peptide synthesis; Fmoc-Asp(Wang resin LL)-ODmab; HATU/HOAt/collidine (1:1:2); on-resin cyclization with DIC/HOAt, then PyBOP/HOAt. Conditions: whole synthesis, resin loading and HPLC peak areas.

cyc(Asp-(Orn(Ac,OH))3-Gly-Lys(N3)) showed an isolated yield of 3%.
